Results: publication PMC11996864, “A small-molecule inhibitor of BCL10-MALT1 interaction abrogates progression of diffuse large B cell lymphoma” (The Journal of Clinical Investigation, 2025)
These are yes or no findings as the source states them, for the method shown. For some assays here: In cells and extracts the contact can be indirect. Some binding calls cover weakened binding; strength is not graded here. Where a sequence is shown, tags or fusion partners need not be part of it.

The chains behind the UniProt entries cited, without tags or fusion partners. Where a name states a change or a piece, a line headed by the entry shows the natural chain unless it says otherwise.
UniProt Q9UDY8: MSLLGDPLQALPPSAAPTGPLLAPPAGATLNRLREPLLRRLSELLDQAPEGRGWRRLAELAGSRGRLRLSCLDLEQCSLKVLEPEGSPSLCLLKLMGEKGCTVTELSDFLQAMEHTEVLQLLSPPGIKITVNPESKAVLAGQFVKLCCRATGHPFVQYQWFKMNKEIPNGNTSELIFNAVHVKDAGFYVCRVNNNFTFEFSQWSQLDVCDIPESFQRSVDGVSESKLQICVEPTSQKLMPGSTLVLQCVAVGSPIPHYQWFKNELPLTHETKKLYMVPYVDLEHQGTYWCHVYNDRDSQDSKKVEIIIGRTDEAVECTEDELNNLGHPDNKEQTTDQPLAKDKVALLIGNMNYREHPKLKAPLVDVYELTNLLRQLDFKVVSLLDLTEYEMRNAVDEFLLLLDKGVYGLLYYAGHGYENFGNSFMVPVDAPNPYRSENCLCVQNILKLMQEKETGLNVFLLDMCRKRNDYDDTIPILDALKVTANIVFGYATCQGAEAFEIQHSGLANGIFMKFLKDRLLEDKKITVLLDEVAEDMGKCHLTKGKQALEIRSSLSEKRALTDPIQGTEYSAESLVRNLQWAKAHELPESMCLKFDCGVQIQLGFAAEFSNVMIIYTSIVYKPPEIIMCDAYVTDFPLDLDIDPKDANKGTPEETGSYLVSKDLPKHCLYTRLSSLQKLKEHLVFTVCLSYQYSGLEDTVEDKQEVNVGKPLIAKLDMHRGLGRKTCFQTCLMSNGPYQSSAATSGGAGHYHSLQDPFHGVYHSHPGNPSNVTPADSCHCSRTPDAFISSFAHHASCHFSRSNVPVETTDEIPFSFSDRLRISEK
UniProt P25098: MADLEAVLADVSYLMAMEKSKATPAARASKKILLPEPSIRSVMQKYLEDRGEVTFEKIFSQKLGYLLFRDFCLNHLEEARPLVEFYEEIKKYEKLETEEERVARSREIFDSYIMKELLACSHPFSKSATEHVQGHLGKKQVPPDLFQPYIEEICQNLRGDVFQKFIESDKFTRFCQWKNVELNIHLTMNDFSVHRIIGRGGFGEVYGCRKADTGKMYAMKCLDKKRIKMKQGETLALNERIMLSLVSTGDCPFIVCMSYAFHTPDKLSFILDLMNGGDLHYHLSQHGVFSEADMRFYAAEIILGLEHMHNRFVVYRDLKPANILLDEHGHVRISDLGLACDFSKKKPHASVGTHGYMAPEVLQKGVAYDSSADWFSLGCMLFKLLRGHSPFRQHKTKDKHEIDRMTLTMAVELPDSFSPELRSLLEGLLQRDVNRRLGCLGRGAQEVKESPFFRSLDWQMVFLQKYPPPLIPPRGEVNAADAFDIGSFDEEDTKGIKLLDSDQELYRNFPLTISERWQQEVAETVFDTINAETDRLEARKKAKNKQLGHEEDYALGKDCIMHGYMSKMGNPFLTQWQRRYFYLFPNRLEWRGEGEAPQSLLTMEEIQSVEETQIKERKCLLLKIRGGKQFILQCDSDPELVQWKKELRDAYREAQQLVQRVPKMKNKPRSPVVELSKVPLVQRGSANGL

Tests used:
[1] = target: T1, His-tagged full-length BCL10 protein (UniProt O95999); test: ELISA; 96-well; His-tagged full-length BCL10 immobilised in wells, exposed to protein in solution (GST-tagged full-length MALT1, detected with anti-MALT1 antibody; GRK2 as specificity control); both purified
T1 sequence: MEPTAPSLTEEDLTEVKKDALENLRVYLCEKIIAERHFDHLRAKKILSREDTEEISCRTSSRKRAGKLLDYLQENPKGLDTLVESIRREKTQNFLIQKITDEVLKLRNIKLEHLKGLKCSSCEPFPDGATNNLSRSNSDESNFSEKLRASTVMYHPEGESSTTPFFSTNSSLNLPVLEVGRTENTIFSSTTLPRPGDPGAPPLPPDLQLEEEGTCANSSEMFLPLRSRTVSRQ

Myc-tagged BCL10 = target: T2, Myc-tagged BCL10 (UniProt O95999); test: co-IP; HA-tagged MALT1 proteins or fragments with Myc-tagged BCL10 (or Myc-tagged RICK, MAVS), expressed in transiently transfected 293T cells
T2 sequence: T1 sequence

Substance	binding [1]	binding (Myc-tagged BCL10)
GST-tagged recombinant human full-length MALT1 protein (from UniProt Q9UDY8 1-824)	binds	
HA-tagged full-length MALT1 V81R (from UniProt Q9UDY8 1-824)		binds

Other lines, results leading:

binding [1]	binding (Myc-tagged BCL10)	Substance
	binds weakly	HA-tagged full-length MALT1 V189R (from UniProt Q9UDY8 1-824)
	binds	HA-tagged full-length (FL) MALT1 (from UniProt Q9UDY8 1-824)
no binding		G protein–coupled receptor kinase 2 (from UniProt P25098 1-689) (enzyme)
